According to patent EP0927045B1, “TUMOR HOMING MOLECULES, […] THEREFROM, AND METHODS OF USING SAME” (The Burnham Institute, priority 1996, dated 1998):
Not every detail of the peptide structures is certain; ends, links or a residue may be inferred. Where a SMILES comes first, the peptide text is derived from it. Bridges are numbered along the chain shown (N, C = ends). The star is where a group is joined. Doxorubicin(3'-N) = COc1cccc2c1C(=O)c1c(O)c3c(c(O)c1C2=O)C[C@@](O)(C(=O)CO)C[C@@H]3O[C@H]1C[C@H](N*)[C@H](O)[C@H](C)O1

Sequences of proteins named here, by UniProt entry; tags and fusion partners are left off. Residues count along the entry.
UniProt P06756, 31-1048: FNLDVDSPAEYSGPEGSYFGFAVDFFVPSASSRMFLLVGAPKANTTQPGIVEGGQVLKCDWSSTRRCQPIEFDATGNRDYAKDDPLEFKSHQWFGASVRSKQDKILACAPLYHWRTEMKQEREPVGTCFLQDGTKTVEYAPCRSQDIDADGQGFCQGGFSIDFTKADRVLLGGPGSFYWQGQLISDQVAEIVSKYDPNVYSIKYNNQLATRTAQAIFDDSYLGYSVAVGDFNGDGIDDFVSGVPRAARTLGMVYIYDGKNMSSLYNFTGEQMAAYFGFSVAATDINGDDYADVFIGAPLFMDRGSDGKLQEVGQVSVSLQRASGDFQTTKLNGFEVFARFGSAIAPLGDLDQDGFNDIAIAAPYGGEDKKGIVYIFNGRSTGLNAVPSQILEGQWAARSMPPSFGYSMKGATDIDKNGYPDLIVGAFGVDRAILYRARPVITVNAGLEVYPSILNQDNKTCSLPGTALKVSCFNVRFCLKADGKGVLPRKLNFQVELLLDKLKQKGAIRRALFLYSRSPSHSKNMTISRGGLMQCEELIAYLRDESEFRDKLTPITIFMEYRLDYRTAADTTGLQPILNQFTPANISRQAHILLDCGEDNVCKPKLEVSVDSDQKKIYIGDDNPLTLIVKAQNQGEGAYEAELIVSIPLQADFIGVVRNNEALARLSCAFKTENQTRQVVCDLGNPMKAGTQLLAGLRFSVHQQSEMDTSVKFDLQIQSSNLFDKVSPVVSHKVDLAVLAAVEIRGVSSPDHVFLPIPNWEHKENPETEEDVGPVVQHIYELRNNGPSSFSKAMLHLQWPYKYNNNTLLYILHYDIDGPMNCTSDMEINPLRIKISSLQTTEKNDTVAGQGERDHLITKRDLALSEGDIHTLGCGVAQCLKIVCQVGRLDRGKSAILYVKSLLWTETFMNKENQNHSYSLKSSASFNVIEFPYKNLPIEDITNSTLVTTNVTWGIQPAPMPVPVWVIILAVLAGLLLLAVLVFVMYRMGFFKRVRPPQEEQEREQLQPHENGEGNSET

Experiments:
[1] = system: breast carcinoma xenografts; test: Competition of phage tumor homing by coinjected free peptide; assay type: in vivo, mice; conditions: for amount of phage in the tumor on coinjection of free peptide: 500 µg free peptide coinjected with phage expressing CDCRGDCFC; for tumor homing of the RGD (CDCRGDCFC) phage on coinjection of free peptide: CNGRC in amounts up to ten times higher than those that inhibited the NGR phage
human αv-integrins = human αv-integrins (Homo sapiens, UniProt P06756); conditions: Koivunen et al. 1995; cited from earlier work
[2] = system: MDA-MB-435 breast carcinoma; test: Tumor therapy with doxorubicin/peptide conjugates in tumor bearing mice; assay type: in vivo, Balb c nu/nu mice; conditions: 5 µg/mouse/week doxorubicin-equivalent iv
Method: Female 2-month old Balb c nu/nu mice (Harlan Sprague Dawley; San Diego CA) were used for these studies and were cared for according to the Burnham Institute animal facility guidelines. […] Tumors were allowed to grow to a size of about 1 cm^3 (about 5% of the mouse's body weight) before starting the treatment experiments, except for the toxicity experiments as discussed below.
Weekly doxorubicin/peptide conjugate or control treatments (5 µg/mouse/week of doxorubicin-equivalent) were administered intravenously. In some experiments, as indicated, a dose of 30 µg/mouse was administered every 3 weeks. Treatment with doxorubicin, alone, is referred to as "dox control" and treatment with doxorubicin conjugated to the non-tumor homing control peptide, […] As an additional control, in some experiments the tumor homing peptide was mixed with doxorubicin, without linking, and the mixture was administered to tumor bearing mice. Such treatment produced results that were not statistically different from those obtained with the above described dox controls.
Mice were anesthetized with a tribromoethanol-based anesthetic mixture (AVERTIN; Papaioannou and Fox, Lab. Anim. 43:189-192 (1993)) before each treatment. […] Tumor volume calculations were based on the equation for the volume of an ovaloid: V=4/3(nabc), where a, b, and c are 1/2 of the measured diameters in each of the three dimensions.

C[C@H](N)C(=O)N[C@H]1CSSC[C@@H](C(=O)NCC(=O)O)NC(=O)[C@H](Cc2ccccc2)NC(=O)[C@@H]2CSSC[C@H](NC(=O)[C@H](CC(=O)O)NC1=O)C(=O)N[C@@H](CCCNC(=N)N)C(=O)NCC(=O)N[C@@H](CC(=O)O)C(=O)N2 (H-ACDCRGDCFCG-OH; disulfide 2-10, 4-8)
amount of phage in the tumor on coinjection of free peptide [1]: about tenfold

N=C(N)NCCC[C@@H]1NC(=O)[C@@H]2CSSC[C@H](NC(=O)[C@H](CC(=O)O)NC(=O)CNC1=O)C(=O)N[C@@H](Cc1ccccc1)C(=O)N[C@H](C(=O)O)CSSC[C@H](N)C(=O)N[C@@H](CC(=O)O)C(=O)N2 (H-CDCRGDCFC-OH; disulfide 1-9, 3-7)
binding to human αv-integrins (human αv-integrins): binds
tumor homing of the RGD (CDCRGDCFC) phage on coinjection of free peptide [1]: greatly reduced
amount needed to inhibit homing of the NGR phage, relative to the CNGRC peptide ([1]; partial inhibition): 5 to 10 fold
accumulation of NGR phage in the breast carcinoma xenografts on co-injection of peptide ([1]; phage expressing CNGRCVSGCAGRC, NGRAHA or CVLNGRMEC): partially inhibited

N=C(N)NCCC[C@@H]1NC(=O)CNC(=O)[C@H](CC(N)=O)NC(=O)[C@@H](N)CSSC[C@@H](C(=O)O)NC1=O [CNGRC] (H-CNGRC-OH; disulfide 1-5)
tumor homing of the RGD (CDCRGDCFC) phage on coinjection of free peptide [1]: did not inhibit

N=C(N)NCCC[C@H](NC(=O)CN)C(=O)NCC(=O)N[C@@H](CCC(=O)O)C(=O)N[C@@H](CO)C(=O)N1CCC[C@H]1C(=O)O [GRGESP, reference compound] (H-GRGESP-OH)
amount of phage in the tumor on coinjection of free peptide [1]: essentially had no effect

COc1cccc2c1C(=O)c1c(O)c3c(c(O)c1C2=O)C[C@@](O)(C(=O)CO)C[C@@H]3O[C@H]1C[C@H](NC(=O)[C@@H]2CSSC[C@H](N)C(=O)N[C@@H](CC(N)=O)C(=O)NCC(=O)N[C@@H](CCCNC(=N)N)C(=O)N2)[C@H](O)[C@H](C)O1 [doxorubicin/CNGRC] (H-CNGRC-{Doxorubicin(3'-N)}; disulfide 1-5)
survival compared with dox control and conjugate control [2]: marked effect on survival
tumor size compared with controls [2]: significantly smaller
